{
  "source": "patent US20200121716A1",
  "about": "“Method for Inhibiting Both Glycolysis and Glutamine Metabolism in Cells and Use Thereof” (priority 2017, published 2020)",
  "tested_on": "anaerobia",
  "assay": "spontaneous anaerobic fermentation of flour paste sealed with rapeseed oil",
  "assay_type": "cell-based",
  "note": "At least one structure is not confirmed: it was looked up by name or label, or the drawing left a doubt.",
  "data": [
    {"smiles": "O=[Se](O)O", "note": "[sodium selenite]", "values": [
      {"measurement": "appearance after further addition of sodium selenite", "value": "red products appeared"},
      {"measurement": "aqueous solution above the settled flour", "value": "clear and transparent"},
      {"measurement": "secretions after further addition of sodium selenite", "value": "no more secretions or new secretions appeared"}
    ]}
  ]
}
